According to PubChem BioAssay AID2003 (Broad Institute, 2009):
Some of the results follow. Entries with a potency or affinity are not part of this list. Entries without a call are filed as inconclusive in the source.

Experiment: PubChem AID 2003
Settings: H4 cells, SNCA 5'UTR luciferase reporter, luminescence; at 12 µM (top of the series) unless noted
With `COc1cc2c(cc1NC(=O)c1ccccc1F)CCCC2` the activation was 72.3%. With `O=C(Nc1cnc2sccn2c1=O)c1ccccc1Cl` the activation was 45.5%. For `O=C(NCCc1c[nH]c2ccccc12)c1cnc2sccn2c1=O`, the activation was 49.7%. `S=C(N/N=C/c1ccc(Br)cc1)N1CCCCC1` showed an activation of 62.8%. With `COC(=O)CCN1CCc2cc(N=Nc3ccc([N+](=O)[O-])cc3)ccc21` the activation was 142% [at 6 µM]. With `Brc1ccc(-c2csc(NC3=NCCCCC3)n2)cc1` the activation was 78.6% [at 6 µM]. For `COc1ccc2c(c1)oc(=O)c1c3ccccc3[nH]c21`, the activation was 131%. `O=C(/C=C/c1c(F)cccc1Cl)Nc1ncccn1` showed an activation of 106%. Compound `Cc1ccc(C(=O)Nc2nc3ccccc3c(=O)s2)cc1` has an activation of 41.7%. Compound `CC(C)(C)c1cc(NCCCn2ccnc2)n2ncc(-c3ccccc3)c2n1` has an activation of 23.3%. `Cc1ccnc(NC(=O)c2ccc(NC(=O)c3ccco3)cc2)c1` showed an activation of 75.1%. For `Cc1cc(NC(=O)OC2CCCCC2)ccc1[N+](=O)[O-]`, the activation was 43.8%. In the case of `c1csc(-c2cn3ccc4ccccc4c3n2)c1`, the activation is reported as 55.1%. `CCc1ccc2oc(-c3cc(N=Cc4cccc(OC)c4O)ccc3O)nc2c1` showed an activation of 3.1%. `Cc1nc2c(C(=O)N3CCCCC3)cnn2c(C)c1Cc1ccccc1F` gave an activation of 56.8%. With `COc1ccc(/C=C2\CCn3c2nc2ccccc2c3=O)cc1OC` the activation was 73.6%. Work on `c1ccc2nc(-c3ccc(-n4ccnc4)cc3)ccc2c1` yielded an activation of -19.3%. `CCOc1ccc2c(c1)sc(=NC(=O)C1CC1)n2C` showed an activation of 60%. `O=C(CSc1nnc(-c2cccnc2)o1)Nc1ccccn1` showed an activation of 10.4%. `CSc1ccc(/C=N/n2c(C)cc(C)cc2=O)cc1` showed an activation of 31.4%. Compound `CC1CCC(=C(C#N)c2nc(-c3cc4ccccc4oc3=O)cs2)CC1` (configuration not stated) has an activation of 81.6%. Compound `Cc1ccc2oc(-c3cccc(NC(=O)Cn4cnc5c(=O)n(C)c(=O)n(C)c54)c3)nc2c1` has an activation of 37.1%. With `CCC(=C/c1sc2ccc3ccccc3c2[n+]1C)/C=C1\Sc2ccc3ccccc3c2N1C` the activation was -39.3%. `O=C(COc1ccccc1F)N/N=C1\CCCc2ccccc21` showed an activation of 84.1%. In the case of `c1ccc(OCCSc2nnnn2C2CCCCC2)cc1`, the activation is reported as -13.2%. With `O=c1c2cc(-c3ccccc3)sc2ncn1/N=C/c1ccco1` the activation was 41.7%. `CSc1nccc(N/N=C/c2ccccc2)n1` showed an activation of 93.6%. `CC1(C)Cc2c(sc3nc(-c4cc5ccccc5o4)n(N)c(=O)c23)CO1` showed an activation of 131%. Work on `COC(=O)c1c(-c2cccnc2)csc1NC(=O)c1cc(C)on1` yielded an activation of 51.3%. `Nc1nn2cc(-c3ccc(Br)cc3)nc2c2ccccc12` showed an activation of 139%. For `N#Cc1c(NC(=O)c2ccccc2)sc2c1CCC2`, the activation was 15.5%. Compound `Cc1ccc2c(c1)sc1nc(=O)n(-c3cccc(Cl)c3)c(=O)n12` has an activation of 62%. Compound `COc1cc(/C=C2\C(=O)N(CCC#N)N=C2C)ccc1OCC(=O)Nc1ccccc1` has an activation of 1.7%. For `O=C(Nc1ncccc1O)c1ccc(Oc2ccccc2)cc1`, the activation was 41.1%. Work on `CCOC(=O)c1cn2nc(Oc3ccccc3)ccc2n1` yielded an activation of 26%. `O=[N+]([O-])c1cccn2cc(-c3ccc(Br)cc3)nc12` showed an activation of 152%. `Cc1cc(NC(=O)/C=C/c2ccccc2Cl)no1` gave an activation of 169%. For `Cc1nc2cc(Nc3nnc(-c4ccccc4)c4ccccc34)ccc2n1C`, the activation was 56.5%. In the case of `Cc1ccc(C(=O)CSc2nsc(C)c2C#N)cc1`, the activation is reported as 25.3%. In the case of `CCS(=O)(=O)c1nc(S(=O)(=O)c2ccc(C)cc2)c(N2CC(C)OC(C)C2)s1` (configuration not stated), the activation is reported as 38.5%. For `CCCc1cc2c(=O)c(-c3ccccn3)coc2cc1OC`, the activation was 64%. Work on `c1ccc(COc2ccc(-c3csnn3)cc2)cc1` yielded an activation of 34%. Compound `CN(C)c1ccc(/C=C/c2nnnn2-c2ccccc2)cc1` has an activation of 82.9%. With `Nc1ncccc1OCc1ccc(Br)cc1` the activation was 65.5%. Work on `COc1ccc(-c2nc(C#N)c(NCc3ccco3)o2)cc1` yielded an activation of 71.8%. Work on `CCC(=O)Nc1cccc(-c2nnc(SCC(=O)c3ccccc3)n2C)c1` yielded an activation of 67.4%. `c1ccc(-c2noc(CC3CCCCC3)n2)cc1` showed an activation of 67.4%. With `CC(C)c1cc(C(=O)NCCc2ccccc2)no1` the activation was 32.3%. With `CCCn1c(C)cc(C(=O)CSc2nc3ccccc3c(=O)n2Cc2ccco2)c1C` the activation was 56.8%. `CCSc1nn2c(=O)c3ccccc3nc2s1` showed an activation of 39.6%. In the case of `CCOC(=O)c1cn[nH]c1NC(=S)Nc1ccccc1`, the activation is reported as 45.1%. Work on `Cc1c(C(=O)Nc2ccccc2[N+](=O)[O-])csc1-c1ccccc1` yielded an activation of 19.7%. With `O=C(CCCc1ccccc1)NC12CC3CC(CC(C3)C1)C2` the activation was 178%. In the case of `Cc1cccc(OC(=O)c2sc3ncn(C)c(=O)c3c2C)c1`, the activation is reported as 85.1%. Work on `CCCCSc1nc2c(cnn2-c2ccccc2)c(=O)n1N` yielded an activation of 71.6%. With `Clc1cnc(N/N=C/c2cccs2)c(Cl)c1` the activation was 115%. Work on `CCS(=O)(=O)c1nnnn1-c1ccccc1S(C)(=O)=O` yielded an activation of 29.5%. `CCOc1ccc(N2C(=O)C(Cl)=C(Nc3ccccc3O)C2=O)cc1` gave an activation of 55.4%. In the case of `CN(C)c1ccc(NC(=O)c2sc(SCC(=O)Nc3nccs3)nc2N)cc1`, the activation is reported as 52.7%. Compound `Cn1cc(/C=C2/SC(=O)N(c3ccccc3)C2=O)c2ccccc21` has an activation of 149%. `CCCCCn1cnc2sc(-c3ccccc3)cc2c1=O` showed an activation of 72.3%. In the case of `CCOC(=O)c1c(C)oc2c1c1c(c3ccccc32)OCN(CCCC(=O)O)C1`, the activation is reported as 91.5%. With `CCCc1cc2c(=O)c(-c3ccc4c(c3)OCCO4)coc2cc1OC(=O)c1ccco1` the activation was 99.2%. In the case of `O=C(Nc1ccccc1)N1CC=C(c2ccccc2)CC1`, the activation is reported as 72.4%. For `CC#CC(=O)N1CCC(C(=O)Nc2ccc(Oc3ccccc3)nc2)CC1`, the activation was 77.2%. `COc1cc(NC(=O)n2ncc3cc(Cl)ccc32)cc(OC)c1` showed an activation of 60.4%. `Clc1nc(-c2ccccn2)nc2scc(-c3ccccc3)c12` gave an activation of -18.5%. `O=C(Cc1ccccc1)NC(=S)Nc1ccc2oc(-c3ccccc3F)nc2c1` gave an activation of 104%. Compound `S=C(c1ccc(-c2ccc(Br)cc2)o1)N1CCOCC1` has an activation of 48.1%. Work on `Cc1ccc(N=c2c([N+](=O)[O-])nn(-c3ccccc3)n2O)c(C)c1` yielded an activation of 30.6%. In the case of `Nc1c(-c2cccc(Cl)c2)cnc2c(-c3ccccc3)cnn12`, the activation is reported as 190%. `O=C(Nc1cc(-c2ccccc2)[nH]n1)c1ccccc1F` showed an activation of 61.2%. Compound `c1ccc(-n2ncc3c(N4CCC5(CC4)OCCO5)ncnc32)cc1` has an activation of 68.5%. Work on `Cn1nnnc1Sc1ncnc2scc(-c3ccc(F)cc3)c12` yielded an activation of 20.6%. For `O=C(Nc1nc2ccc([N+](=O)[O-])cc2s1)C1CCCO1` (configuration not stated), the activation was 71.6%. `COc1ccc(Nc2ncnc3c2oc2ccccc23)cc1` gave an activation of 87%. `c1ccc(CSc2nnc(-c3c[nH]c4ccccc34)o2)cc1` gave an activation of 71.7%. With `Cc1nc(-c2ccccc2)sc1-c1ccnn1C` the activation was 43.9%. `O=c1sc(/C=N/Nc2ccccc2)c(Cl)n1Cc1ccccc1` showed an activation of 94.2%. For `O=C(CSc1nnc(-c2ccccn2)o1)Nc1cccc(Cl)c1`, the activation was 67.5%. Work on `Cc1csc(NC(=O)CSc2nsc(SCC(=O)Nc3nc(C)cs3)c2C#N)n1` yielded an activation of 72.2%. For `Cn1c(-c2nnn(-c3ccc(F)cc3)n2)cc2ccccc21`, the activation was 73.1%. Work on `COc1ccc(/C=C2\SC(=O)N(CCNC(=O)C3CC4C=CC3C4)C2=O)cc1` (configuration not stated) yielded an activation of 80.2%. With `CCN1C(=S)SC(=O)C1=C1C=C(C)N(Cc2ccco2)C(C)=C1` the activation was 43.8%. Work on `COc1ccc(Cl)c2c1[nH]c1nc(SCc3ccccn3)nnc12` yielded an activation of 92.7%. With `Fc1ccc(/C=N/NC2=Nc3cccc4cccc2c34)cc1` the activation was 68.5%. Work on `COc1ccc(-c2cc(O)cc(O)c2)cc1` yielded an activation of 30.9%. Compound `COc1ccc(NC(=O)c2cc3ccccc3o/c2=N\NS(=O)(=O)c2ccc(C)cc2)cc1` has an activation of 30.9%. `Cc1ccc(CNC(=O)/C=C/c2cccs2)cc1` gave an activation of 37.3%. `CC(=O)c1cccc(NC(=O)C(=O)Nc2cccc3ccccc23)c1` gave an activation of 45.8%. `COc1ccc(C(=O)Nc2ccccc2C(=O)N/N=C/c2cccc3ccccc23)cc1` showed an activation of 13.1%. For `N=C1S/C(=C\c2cn[nH]c2-c2ccc(F)cc2)C(=O)N1c1ccccc1F`, the activation was 42.6%. `Nc1cc(-c2nc3ncccc3o2)ccc1Cl` showed an activation of 88.5%. With `O=C(Nc1nccs1)c1c(O)c2c([nH]c1=O)CCCC2` the activation was 78.6%. With `COc1cc(OC)cc(C(=O)NCC(=O)OCc2nc3ccccc3s2)c1` the activation was 58.3%. Work on `COC(=O)C1C(=O)c2c([nH]c(C(=O)OC3CCCCC3)c2C)CC1C` (configuration not stated) yielded an activation of 74.7%. For `Clc1nnc(N/N=C/c2ccccc2)c2ccccc12`, the activation was 78.5%. `Cn1c(NC(=O)CCc2ccccc2)cc(=O)n(C)c1=O` showed an activation of 54.7%. Work on `CC(C)(C)c1csc(NC2=NS(=O)(=O)c3ccccc32)n1` yielded an activation of 52.4%. `O=C1C(C=Nc2ccc(F)cc2)=C(O)c2ccccc21` gave an activation of 102%. In the case of `Cc1cc(O)c(C2=Nc3ccccc3SC(c3ccc(Cl)cc3)C2)c(=O)o1` (configuration not stated), the activation is reported as 31.1%. `O=[N+]([O-])C(/C=C(\Cl)[N+](=O)[O-])=C(N1CCCCC1)N1CCCCC1` showed an activation of 24.5%. In the case of `Cn1c(-c2ccc(F)cc2)cnc1SCC(=O)Nc1ccccc1N1CCOCC1`, the activation is reported as 59.4%. In the case of `C=CCn1c(C)nc2c(sc3nc4c(cc32)COC(C)(C)C4)c1=O`, the activation is reported as 18.8%. `Cn1nnc2cc(NC(=O)Nc3cccc(Cl)c3)ccc21` gave an activation of 91.5%. In the case of `COc1ccc(C2CC(c3ccc4ccccc4c3)=NN2C(=O)COC(=O)C2CCC(=O)N2)cc1` (configuration not stated), the activation is reported as 55.2%. For `O=[N+]([O-])c1cccc(N/N=C/c2ccc(N3CCOCC3)cc2)c1`, the activation was 186%. `c1ccc(-c2nnc(SCCC3OCCCO3)o2)cc1` gave an activation of 40.1%. In the case of `CCOC(=O)c1c(C)[nH]c(N=Nc2ccc(C)cc2)c1C`, the activation is reported as 120%. With `CSc1ncc(-c2ccc(Cl)cc2)[nH]1` the activation was 47.6%. Compound `O=c1c2c3c(sc2nc2n1N=C(c1cccs1)CS2)CCCC3` has an activation of 58.7%. For `Cc1cccc(-c2nc(C#N)c(NCC3CCCO3)o2)c1` (configuration not stated), the activation was 47.3%. In the case of `Cc1cc(/C=C2/C(=O)N(C)C(=S)N2C)c(C)n1C1CC1`, the activation is reported as 168% [at 6 µM]. With `O=C(Nc1ccccc1)c1cc2ccccc2c(=O)s1` the activation was 232%. `Cn1c(C(=O)NCC2CCCO2)cc2oc3ccccc3c21` (configuration not stated) gave an activation of 26%. With `CCOC(=O)c1ccc(-c2ccc(/C=N/NC(=O)c3cncc(Br)c3)o2)cc1` the activation was 59.1%. `COC(=O)N1N=C(c2ccc(Br)cc2)CC1(O)C(F)(F)F` (configuration not stated) gave an activation of 21%.
